The whole screen tested about 390,000 compounds, of which about 610 (0.16%) were called active. The inconclusive results got no clear call from the source; some entries with a clear call stand among them for comparison. Calls follow the shape of the dose curve; as a rule, active = well fitted inhibition curve with a large enough effect; inconclusive = small, poorly fitted or top-dose-only effect, or effect the other way, or another doubt; inactive = no such curve, though single readings can be large or run the other way. A potency beside an inconclusive call is a rough fit, not a confirmed value.
Experiment: Nrf2 qHTS screen for inhibitors: counterscreen for cytotoxicity
Conditions: A549 ARE-Fluc cells, CellTiter-Fluor viability, 18-24 h; activity change, negative = cytotoxicity: at 46 µM (top of the series)
How it was run: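 A549 ARE-Fluc cells in 5% FBS OPTI-MEM, 5000 cells/well, rested 2 h then exposed to compounds in concentration-response for 18-24 h at 37 °C. Viability by CellTiter-Fluor fluorescence (Ex 405/Em 525) after 30 min; luciferase luminescence (BugLite, 15 min, RT) read afterwards.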
% is scaled to controls: 0 for no effect and ±100 for the full control effect; potency is read from the fitted curve at half-maximal effect.

Row | SMILES | activity change, negative = cytotoxicity | Potency
1 | Cc1cc(N2CCOCC2)nc2ccc(NC(=O)CCC(=O)N3CCCCC3)cc12 | inactive: 25.3% | –
2 | Cc1cc(OCCCn2c(CCNC(=O)C3CCCCC3)nc3ccccc32)ccc1Cl | – | inconclusive: 16.4 µM [falling, single point]
3 | CO/N=C/NC(=O)NOCc1ccc(Cl)cc1Cl | inactive: -2.84% | –
4 | Cc1cc(C)c(O)c(-c2cc(C(=O)Nc3ccc(S(=O)(=O)N4CCOCC4)cc3)[nH]n2)c1 | – | inconclusive: 20.6 µM [falling, single point]
5 | O=C(CCc1nc2ccccc2[nH]1)Nc1ccc(F)cc1 | – | inconclusive: 23.1 µM [falling, partial curve, poor fit]
6 | Cn1c(C(C#N)C(=O)c2sc3ccccc3c2Cl)nc2ccccc21 (configuration not stated) | – | inconclusive: 29.1 µM [falling, single point]
7 | O=C(C1COc2ccccc2O1)N(Cc1cccnc1)c1nc2c(Cl)cccc2s1 (configuration not stated) | inactive: 0.631% | –
8 | O=C(CSc1ccccc1C(=O)N1CCN(c2ccc([N+](=O)[O-])cc2)CC1)N1CCCC1 | – | inconclusive: 32.6 µM [falling, partial curve, poor fit]
9 | CC(CNC(=O)c1cc(-c2ccccc2)n[nH]1)c1ccccc1 (configuration not stated) | inactive: -8.8% | –
10 | [O-]/C(=C(\C(=S)Nc1ccc(SC(F)F)cc1)[n+]1ccccc1)c1cc(Cl)ccc1Cl | – | inconclusive: 29.1 µM [falling, single point]
11 | Cc1ccc(S(=O)(=O)c2c(Nc3cc(C)ccc3C)sc(C(=O)c3ccc4c(c3)OCO4)c2N)cc1 | inactive: 5.6% | –
12 | CCOc1ccc(NC(=O)CSc2nnc3c(n2)[nH]c2ccc(S(=O)(=O)N4CCCCC4)cc23)cc1 | inactive: 1.42% | –
13 | Cc1ccc(S(=O)(=O)CC(CN2CCCCC2)N2CCCCC2)cc1 (configuration not stated) | – | inconclusive: 18.4 µM [falling, single point]
14 | CCc1ccc(NC(=O)C(NS(=O)(=O)c2cccc3nsnc23)c2ccccc2)cc1 (configuration not stated) | – | inconclusive: 29.1 µM [falling, single point]
15 | Cn1nnnc1SCc1ccc(C(=O)Nc2ccc(Br)cc2)cc1 | inactive: -12.3% | –
16 | COC(=O)c1ccccc1NC(=S)NC(=O)c1ccc2c(c1)OCO2 | inactive: 0.662% | –
17 | COc1ccc(CNc2ncnc3nc[nH]c23)cc1OC | – | inconclusive: 29.1 µM [activator, single point]
18 | O=C(CSc1nc(Nc2ccccc2)nc(N2CCOCC2)n1)Nc1cccc([N+](=O)[O-])c1 | – | inconclusive: 14.6 µM [falling, partial curve, poor fit]
19 | O=C(/C=C/c1ccc(S(=O)(=O)N2CCOCC2)cc1)N1CCN(c2ccc(F)cc2)CC1 | inactive: -8.25% | –
20 | COc1cc(C(=O)NNC(=O)c2ccccc2Br)ccc1OCC(=O)N1CCOCC1 | – | inconclusive: 29.1 µM [falling, single point]
21 | Cc1onc(-c2c(Cl)cccc2Cl)c1C(=O)N/N=C(\N)COc1ccc(Cl)cc1 | inactive: -27.5% | –
22 | Cc1cccc(C)c1NC(=O)/C(C#N)=C/c1ccc(-c2ccc(C(=O)O)cc2)o1 | – | inconclusive: 20.6 µM [falling, single point]
23 | N#Cc1nc(COc2ccccc2Cl)oc1NCc1ccc(F)cc1 | – | inconclusive: 20.6 µM [activator, partial curve, poor fit]
24 | C/C(=N\NC(=O)c1ccccc1OCCOc1ccccc1)c1ccccc1F | – | inconclusive: 23.1 µM [falling, single point]

In the list so far, these contain a thiophene ring, fused or not.
Row | SMILES | activity change, negative = cytotoxicity | Potency
6 | Cn1c(C(C#N)C(=O)c2sc3ccccc3c2Cl)nc2ccccc21 (configuration not stated) | – | inconclusive: 29.1 µM [falling, single point]
11 | Cc1ccc(S(=O)(=O)c2c(Nc3cc(C)ccc3C)sc(C(=O)c3ccc4c(c3)OCO4)c2N)cc1 | inactive: 5.6% | –

Remaining list, next part.

Row | SMILES | activity change, negative = cytotoxicity | Potency
25 | Cc1ccc(N(C(=O)c2nsc(Cl)c2Cl)C(C(=O)NC2CCCC2)c2ccc(O)cc2)cc1C (configuration not stated) | – | inconclusive: 23.1 µM [falling, single point]
26 | O=C(Oc1ccc(Cl)c2cccnc12)c1ccco1 | inactive: -5.74% | –
27 | CC(c1ccccc1)N1C(=O)c2ccc(C(=O)NCc3cccnc3)cc2C1=O (configuration not stated) | inactive: 0.555% | –
28 | Cc1cc(N/N=C/c2ccccc2O)c2ccccc2n1 | inactive: -22% | –
29 | CCc1nc2ccc(C(=O)N(C)CC(=O)Nc3ccc(Cl)c(C(F)(F)F)c3)cc2nc1CC | – | inconclusive: 18.4 µM [falling, single point]
30 | CCCCn1c(N)c(N(CC(C)C)C(=O)CSCc2c(C)noc2C)c(=O)[nH]c1=O | inactive: -0.955% | –
31 | COC(=O)C(C)NC(=O)CNS(=O)(=O)c1ccc(F)cc1 (configuration not stated) | – | inconclusive: 23.1 µM [activator, partial curve, poor fit]
32 | O=C(NCc1ccccn1)c1coc(=O)c(Br)c1 | inactive: -11.1% | –
33 | Cc1cc(-c2n[nH]c(=S)n2Cc2ccco2)n(C)n1 | inactive: -2.46% | –
34 | O=C(Nc1ccc(N2CCN(c3ccc(F)cc3)CC2)c(C(=O)O)c1)c1ccccc1F | inactive: -1.33% | –
35 | Cc1ccc(NC(=S)N2CCN(S(=O)(=O)c3ccc(C)cc3)CC2)cc1 | – | inconclusive: 20.6 µM [falling, partial curve, poor fit]
36 | O=C(C1=C[C@@H](c2ccc(Br)cc2)C[C@@H](OCc2ccc(CO)cc2)O1)N1CCN(Cc2ccccc2)CC1 | – | inconclusive: 18.4 µM [falling, partial curve, poor fit]
37 | Cc1ccc(Cl)cc1N1CCN(C(=O)C2CCN(S(=O)(=O)c3cccnc3)CC2)CC1 | inactive: -0.545% | –
38 | CCCCNC(=O)c1cc2cc(OC)ccc2[nH]1 | – | inconclusive: 6.51 µM [activator, single point]
39 | O=C(N/N=C/c1ccccn1)c1ccc(Br)cc1 | – | inconclusive: 8.2 µM [falling, partial curve, poor fit]
40 | CCSc1nnc(-c2ccc(S(=O)(=O)N3CCOCC3)cc2)n1CC1CCCO1 (configuration not stated) | – | inconclusive: 32.6 µM [activator, partial curve, poor fit]
41 | Cc1ccc2c(c1)C=CC(C#N)N2C(=O)c1ccccc1 (configuration not stated) | – | inconclusive: 9.2 µM [falling, partial curve, poor fit]
42 | CCOC(=O)Cc1csc(SCC(=O)c2c(N)n(CC(C)C)c(=O)n(C)c2=O)n1 | – | inconclusive: 4.11 µM [falling, single point]
43 | CCSc1ncc(Cl)c(C(=O)N(Cc2ccc(N(C)C)cc2)Cc2ccco2)n1 | inactive: -9.92% | –
44 | Cc1cc(Cl)ccc1OCC(=O)N1CCCN(C(=O)COc2ccc(Cl)cc2C)CC1 | – | inconclusive: 32.6 µM [falling, single point]
45 | Cc1ccc(CNc2ccc([N+](=O)[O-])cc2C(N)=O)cc1 | inactive: -10.7% | –
46 | Cc1cccc(C)c1N=C1NN=C(c2ccccc2F)CS1 | – | inconclusive: 13 µM [activator, partial curve, poor fit]
47 | O=[N+]([O-])c1cc(Br)cc(C=Nc2ccc3c(c2)OCO3)c1O | inactive: -16.3% | –
48 | CCOc1ccc(C2c3[nH]c4ccccc4c3CCN2Cc2cccn2-c2ncccn2)cc1 (configuration not stated) | – | inconclusive: 32.6 µM [falling, partial curve, poor fit]

Row | SMILES | activity change, negative = cytotoxicity | Potency
49 | CCOC(=O)c1cc(C#N)c(SC)nc1C | inactive: -0.461% | –
50 | CC(C)(CNC(=O)c1sc2cc(Cl)ccc2c1Cl)N1CCOCC1 | inactive: 0.18% | –
51 | NC(=O)c1cc2cc([N+](=O)[O-])ccc2oc1=O | – | inconclusive: 16.4 µM [falling, partial curve, poor fit]
52 | CN(C)c1nc(C=C(C#N)C#N)c(Cl)n1-c1ccc(F)cc1 | – | inconclusive: 16.4 µM [falling, single point]
53 | CCC(=O)N(c1nnc(SCC(=O)c2ccc[nH]2)s1)C1CC1 | inactive: -4.01% | –
54 | N#Cc1c(N)n(CCCN2CCOCC2)c2nc3ccccc3nc12 | – | inconclusive: 18.4 µM [activator, single point]
55 | COc1ccc(NS(=O)(=O)c2cc(NC(=O)c3ccc(=O)[nH]c3)ccc2C)cc1 | – | inconclusive: 18.4 µM [activator, partial curve, poor fit]
56 | Nc1cccc2c1C(=O)N(Cc1nnc(-c3ccccc3Br)o1)C2=O | – | inconclusive: 20.6 µM [activator, partial curve]
57 | C=CCOc1ccc2ccccc2c1CNCCCN1CCOCC1 | – | inconclusive: 25.9 µM [falling, partial curve, poor fit]
58 | Cc1cc(C)c(NC(=O)CSc2nc(COc3ccccc3)nc3ccccc23)c(C)c1 | – | inconclusive: 29.1 µM [falling, single point]
59 | COc1ccc(C2=NN(C(=O)c3cccs3)C(c3ccccc3O)C2)cc1 (configuration not stated) | – | inconclusive: 16.4 µM [falling, single point]
60 | N#CC1=C2SCC(O)(c3ccccc3)N2C(=O)CC1c1ccccc1 (configuration not stated) | – | inconclusive: 7.31 µM [falling, partial curve]
61 | CSc1ccccc1OCc1cc(C(=O)N2CCN(c3ccccc3)CC2C)no1 (configuration not stated) | inactive: -24% | –
62 | CCOc1ccc(-c2nc(N)ncc2Oc2ccccc2Br)c(O)c1 | inactive: -9.8% | –
63 | CCCn1nnc(NC(=O)c2ccc(-c3cc(Cl)ccc3Cl)o2)n1 | – | inconclusive: 18.4 µM [falling, single point]
64 | COCCN(CC(=O)Nc1cccc(C)c1C)C(=O)c1cc2ccccc2cc1OC | – | inconclusive: 23.1 µM [falling, single point]
65 | Cc1ccc(C)c(-n2c(-c3csc(C)c3C)n[nH]c2=S)c1 | inactive: 1.44% | –
66 | COc1cccc(-c2cccc(NC(=O)C3CCN(Cc4cnn(C)c4)CC3)c2)c1 | inactive: -0.682% | –
67 | N#CC(C#N)=C(Nc1ccc(F)cc1)SCc1cccc(F)c1 | – | inconclusive: 14.6 µM [falling, partial curve]
68 | COCCNC(=O)c1ccc(-n2c(-c3ccccc3)cc3c2CCCCC3)cc1 | inactive: -8.77% | –
69 | O=C(CCl)N1CCCC1c1ccc2c(c1)OCCO2 (configuration not stated) | inactive: -6.05% | –
70 | COc1cccc(N2C(=O)CSC23C(=O)N(Cc2ccccc2)c2ccccc23)c1 (configuration not stated) | inactive: -3.52% | –
71 | COc1ccc(-c2[nH]ncc2N=Nc2cc(C)cc(C)c2)cc1 | – | inconclusive: 20.6 µM [falling, single point]
72 | O=C(NCCCCc1ccccc1)NC[C@@H]1CC[C@@H](Cc2ccc(-c3ccccc3)cc2)O1 | inactive: -0.164% | –
